Measured values as given in patent publication US20250026796A1 (priority 2022, published 2025).
“Also recorded” adds a separate entry of the source. Not every detail of the peptide structures is certain; ends, links or a residue may be inferred. Where no end group is shown, it is not given here.

By UniProt entry, the sequences of proteins in these tests, tags left out.
UniProt P0DTC4, whole entry, looked up: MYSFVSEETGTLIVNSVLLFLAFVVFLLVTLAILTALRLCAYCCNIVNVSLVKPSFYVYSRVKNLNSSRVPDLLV

Legend:
SARS-CoV-2 WA1 virus [1] = system: SARS-CoV-2 WA1 virus
SARS-CoV-2 WA1 virus [2] = assay type: cell-based
SARS-CoV-2 WA1 virus [3] = assay type: cell-based; remark: listed apart in the source
SARS-CoV-2 WA1 virus [4] = assay type: cell-based; remark: listed apart in the source
[5] = target: SARS2-E fused with YFP (2E-YFP) (Severe acute respiratory syndrome coronavirus 2, UniProt P0DTC4); assay type: cell-based, SARS-CoV-2
SARS-CoV-2 WA1 virus [6] = assay type: cell-based; remark: listed apart in the source

GRKKRRQRRRPPQMYSFVSDDTGTLIVNSVL [iPep-SARS2-E]
Inhibition of viral toxicity (cytopathic effect) (SARS-CoV-2 WA1 virus [1]): significantly inhibits viral toxicity
Nucleocapsid expression and cellular morphology (SARS-CoV-2 WA1 virus [2]): moderate expression of viral nucleocapsids with normal cellular morphology
Nucleocapsid protein subcellular localization (SARS-CoV-2 WA1 virus [2]): co-localized to BiP/GRP78
Viral particles in vacuoles (electron microscopy) (SARS-CoV-2 WA1 virus [3]): no vacuoles containing multiple viral particles were found
JUN/AP-1 expression (SARS-CoV-2 WA1 virus [4]): significantly restore the expression of JUN/AP-1
SARS-CoV-2 E gene expression in cells (SARS-CoV-2 WA1 virus [4]): significant decrease
SARS-CoV-2 nucleocapsid gene expression in cells (SARS-CoV-2 WA1 virus [4]): significant decrease
SARS-CoV-2 viral gene (SARS2 N) expression in cells, time-course (SARS-CoV-2 WA1 virus [4]): no difference in SARS-CoV-2 viral gene expression
SARS-CoV-2 viral gene detection in culture supernatant (SARS-CoV-2 WA1 virus [4]): significant reduction of viral release; also recorded: significant reduction in SARS-CoV-2 viral gene detection
2E-YFP protein expression [5]: significantly reduced 2E-YFP protein expression
YFP protein expression (control experiment) [5]: did not observe any effect
SARS-CoV-2 viral detection of the culture supernatant (SARS-CoV-2 WA1 virus [6]): significant difference in SARS-CoV-2 viral detection
SARS-CoV-2 viral gene expression in organoids (SARS-CoV-2 WA1 virus [6]): significantly reduced
